# Results from US20090181003A1, “Regulation of S6 Kinsase Protein Activity and Related Methods” (priority 2005, published 2009).
# For at least one compound, name, drawing or mass did not settle the structure.
# Assays:
# S6K1 K516 acetylation = S6K1 K516 acetylation in serum-stimulated NIH 3T3 cells treated with signal transduction inhibitors (Ac-K516 immunoblot); format: cell-based; conditions: 50 nM Rapamycin, 20 μM LY294002 or 10 μM PD98059 30 minutes before serum stimulation, lysed after 1 hr
# Method: In this study, NIN3T3 cells were starved and stimulated with serum for various period of time. Total cell lysates were separated by SDS-PAGE and immunoblotted with acetyl-K516 antibodies. In FIG. 10B, the effect of various cell signalling inhibitors on K516 acetylation is shown. In this study, NIH3T3 cells were starved and treated with 50 nM Rapamycin (mTor inhibitor), 20 μM LY294002 (phosphatidylinositol 3′-kinase inhibitor), 10 μM PD98059 (MAP kinase inhibitor) or vehicle alone thirty minutes before stimulation with serum. Then, cells were stimulated with serum for one hour and lysed. The supernatants of total lysates were separated by SDS-PAGE and Western blotted with acetyl-K516 antibodies. […] The wtS6K and K516R mutants were transiently expressed in Hek293 cells. Immunoprecipitated recombinant S6Ks and total cell lysates were resolved by gel electrophoresis and immunoblotted with antibodies specific for EE tag, pT412 and actin.
# Furthermore, the effect of signal transduction inhibitors on K516 acetylation was studied in NIH 3T3 cell. In this experiment, cells were serum starved and treated with rapamycin, LY and PD for 30 minutes before serum stimulation. Cells were lysed 1 hr hour after stimulation and the lysates separated by SDS-PAGE and immunoblotted with Ac-K516, pT412 antibodies.
# S6K1 = S6K1 T412 and ribosomal protein S6 phosphorylation in serum-stimulated NIH 3T3 cells treated with inhibitors; format: cell-based; conditions: 50 nM Rapamycin or 20 μM LY294002 30 minutes before serum stimulation
# S6K = conditions: cited from earlier work
smiles,measurement,setting,value
O=c1cc(N2CCOCC2)oc2c(-c3ccccc3)cccc12 [LY294002],acetylation of S6K1 at K516,S6K1 K516 acetylation,not affected
same,phosphorylation of S6K1 at T412,S6K1,strongly inhibited
same,phosphorylation of ribosomal protein S6 at T244,S6K1,strongly inhibited
CO[C@H]1C[C@@H]2CC[C@@H](C)[C@@](O)(O2)C(=O)C(=O)N2CCCC[C@H]2C(=O)O[C@H]([C@H](C)C[C@@H]2CC[C@@H](O)[C@H](OC)C2)CC(=O)[C@H](C)/C=C(\C)[C@@H](O)[C@@H](OC)C(=O)[C@H](C)C[C@H](C)/C=C/C=C/C=C/1C [Rapamycin],acetylation of S6K1 at K516,S6K1 K516 acetylation,not affected
same,phosphorylation of S6K1 at T412,S6K1,strongly inhibited
same,phosphorylation of ribosomal protein S6 at T244,S6K1,strongly inhibited
same,activation of S6K induced by mitogenic stimuli,S6K,fully abrogate
COC[C@H]1OC(=O)c2coc3c2[C@@]1(C)C1=C(C3=O)[C@@H]2CCC(=O)[C@@]2(C)C[C@H]1OC(C)=O [Wortmannin],activation of S6K induced by mitogenic stimuli,S6K,fully abrogate
